# Screening data

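A panel of P. falciparum strains inside erythrocytes is exposed to compounds for three days, then a DNA-binding dye reports the amount of parasite DNA. Each compound was titrated across a series from about 0.000037 to 29 µM. The number is the fitted AC50, the concentration giving a half-maximal change in signal; a lower value means higher potency, whether the curve shows a decrease or an increase. Calls follow the curve class and fit quality: every row here is inconclusive, covering signal-raising curves and weak, poorly fitted, partial or highest-dose-only inhibition curves.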

Values are in µM. All entries here are filed as inconclusive. These entries are mostly ones the record files as inconclusive; other results of the assay are not listed here. Potencies fitted to partial, single-point or poorly fitting curves are rough. Some entries filed as inconclusive have a full curve. The first word of each remark tells which way the curve ran; it can be opposite to the aim of the assay. An entry listed twice with the same setting is a separate test.

compound | setting | potency (µM) | remark
CN1CCN(CCC=C2c3ccccc3Sc3ccc(S(=O)(=O)N(C)C)cc32)CC1 | CP192 | 19.01 | inhibitor, single point
CN1CCN(CCC=C2c3ccccc3Sc3ccc(S(=O)(=O)N(C)C)cc32)CC1 | CP185 | 17.78 | inhibitor, single point
CN1CCN(CCC=C2c3ccccc3Sc3ccc(S(=O)(=O)N(C)C)cc32)CC1 | CP203 | 15.1 | inhibitor, single point
CN1CCN(CCC=C2c3ccccc3Sc3ccc(S(=O)(=O)N(C)C)cc32)CC1 | AA1029 | 10 | inhibitor, single point
CN1CCN(CCC=C2c3ccccc3Sc3ccc(S(=O)(=O)N(C)C)cc32)CC1 | CP194 | 15.1 | inhibitor, single point
CN1CCN(CCC=C2c3ccccc3Sc3ccc(S(=O)(=O)N(C)C)cc32)CC1 | CP325 | 16.94 | inhibitor, single point
CN1CCN(CCC=C2c3ccccc3Sc3ccc(S(=O)(=O)N(C)C)cc32)CC1 | JCK | 17.78 | inhibitor, single point
CN1CCN(CCC=C2c3ccccc3Sc3ccc(S(=O)(=O)N(C)C)cc32)CC1 | P94_40 | 10 | inhibitor, single point
CN1CCN(CCC=C2c3ccccc3Sc3ccc(S(=O)(=O)N(C)C)cc32)CC1 | HB3 | 17.78 | inhibitor, single point
CN1CCN(CCC=C2c3ccccc3Sc3ccc(S(=O)(=O)N(C)C)cc32)CC1 | PC49 | 10 | inhibitor, single point
CN1CCN(CCC=C2c3ccccc3Sc3ccc(S(=O)(=O)N(C)C)cc32)CC1 | CP211 | 12 | inhibitor, single point
CN1CCN(CCC=C2c3ccccc3Sc3ccc(S(=O)(=O)N(C)C)cc32)CC1 | CP329 | 19.01 | inhibitor, single point
CN1CCN(CCC=C2c3ccccc3Sc3ccc(S(=O)(=O)N(C)C)cc32)CC1 | CP247 | 8.912 | inhibitor, single point
CN1CCN(CCC=C2c3ccccc3Sc3ccc(S(=O)(=O)N(C)C)cc32)CC1 | CP238 | 11.22 | inhibitor, single point
CN1CCN(CCC=C2c3ccccc3Sc3ccc(S(=O)(=O)N(C)C)cc32)CC1 | CP297 | 19.01 | inhibitor, single point
CN1CCN(CCC=C2c3ccccc3Sc3ccc(S(=O)(=O)N(C)C)cc32)CC1 | CP262 | 19.01 | inhibitor, single point
CN1CCN(CCC=C2c3ccccc3Sc3ccc(S(=O)(=O)N(C)C)cc32)CC1 | PAD | 12.59 | inhibitor, single point
CN1CCN(CCC=C2c3ccccc3Sc3ccc(S(=O)(=O)N(C)C)cc32)CC1 | CP268 | 13.46 | inhibitor, single point
CN1CCN(CCC=C2c3ccccc3Sc3ccc(S(=O)(=O)N(C)C)cc32)CC1 | N140 | 10 | inhibitor, single point
O=P(O)(O)OP(=O)(O)OP(=O)(O)O | W2 | 1.51 | inhibitor, partial curve, poor fit
CC(=O)O[C@@]12CO[C@@H]1C[C@H](O)[C@@]1(C)C(=O)[C@H](O)C3=C(C)[C@@H](OC(=O)C(O)[C@@H](NC(=O)OC(C)(C)C)c4ccccc4)C[C@@](O)([C@@H](OC(=O)c4ccccc4)[C@H]21)C3(C)C (stereo partly specified) | CP325 | 0.019 | inhibitor, full curve
CC(=O)O[C@@]12CO[C@@H]1C[C@H](O)[C@@]1(C)C(=O)[C@H](O)C3=C(C)[C@@H](OC(=O)C(O)[C@@H](NC(=O)OC(C)(C)C)c4ccccc4)C[C@@](O)([C@@H](OC(=O)c4ccccc4)[C@H]21)C3(C)C (stereo partly specified) | FAB9 | 0.1259 | inhibitor, full curve
CC(=O)O[C@@]12CO[C@@H]1C[C@H](O)[C@@]1(C)C(=O)[C@H](O)C3=C(C)[C@@H](OC(=O)C(O)[C@@H](NC(=O)OC(C)(C)C)c4ccccc4)C[C@@](O)([C@@H](OC(=O)c4ccccc4)[C@H]21)C3(C)C (stereo partly specified) | CP201 | 0.0757 | inhibitor, full curve
CC(=O)O[C@@]12CO[C@@H]1C[C@H](O)[C@@]1(C)C(=O)[C@H](O)C3=C(C)[C@@H](OC(=O)C(O)[C@@H](NC(=O)OC(C)(C)C)c4ccccc4)C[C@@](O)([C@@H](OC(=O)c4ccccc4)[C@H]21)C3(C)C (stereo partly specified) | PC49 | 1.778 | inhibitor, full curve, poor fit
CC(=O)O[C@@]12CO[C@@H]1C[C@H](O)[C@@]1(C)C(=O)[C@H](O)C3=C(C)[C@@H](OC(=O)C(O)[C@@H](NC(=O)OC(C)(C)C)c4ccccc4)C[C@@](O)([C@@H](OC(=O)c4ccccc4)[C@H]21)C3(C)C (stereo partly specified) | CP268 | 0.0338 | inhibitor, full curve
CC(=O)O[C@@]12CO[C@@H]1C[C@H](O)[C@@]1(C)C(=O)[C@H](O)C3=C(C)[C@@H](OC(=O)C(O)[C@@H](NC(=O)OC(C)(C)C)c4ccccc4)C[C@@](O)([C@@H](OC(=O)c4ccccc4)[C@H]21)C3(C)C (stereo partly specified) | CP250 | 0.0398 | inhibitor, full curve
CC(=O)O[C@@]12CO[C@@H]1C[C@H](O)[C@@]1(C)C(=O)[C@H](O)C3=C(C)[C@@H](OC(=O)C(O)[C@@H](NC(=O)OC(C)(C)C)c4ccccc4)C[C@@](O)([C@@H](OC(=O)c4ccccc4)[C@H]21)C3(C)C (stereo partly specified) | CP266 | 0.1069 | inhibitor, full curve
C[N+]1([O-])[C@@H]2CC(OC(=O)[C@@H](CO)c3ccccc3)C[C@@H]1[C@H]1O[C@H]12 (stereo partly specified) | CP266 | 0.3613 | inhibitor, full curve, poor fit
C[N+]1([O-])[C@@H]2CC(OC(=O)[C@@H](CO)c3ccccc3)C[C@@H]1[C@H]1O[C@H]12 (stereo partly specified) | CP194 | 7.208 | inhibitor, single point
C[N+]1([O-])[C@@H]2CC(OC(=O)[C@@H](CO)c3ccccc3)C[C@@H]1[C@H]1O[C@H]12 (stereo partly specified) | CP211 | 8.087 | inhibitor, single point
C[N+]1([O-])[C@@H]2CC(OC(=O)[C@@H](CO)c3ccccc3)C[C@@H]1[C@H]1O[C@H]12 (stereo partly specified) | CP269 | 8.087 | inhibitor, single point
C[N+]1([O-])[C@@H]2CC(OC(=O)[C@@H](CO)c3ccccc3)C[C@@H]1[C@H]1O[C@H]12 (stereo partly specified) | CP201 | 9.074 | inhibitor, single point
C[N+]1([O-])[C@@H]2CC(OC(=O)[C@@H](CO)c3ccccc3)C[C@@H]1[C@H]1O[C@H]12 (stereo partly specified) | CP297 | 9.074 | inhibitor, single point
C[N+]1([O-])[C@@H]2CC(OC(=O)[C@@H](CO)c3ccccc3)C[C@@H]1[C@H]1O[C@H]12 (stereo partly specified) | CP291 | 7.208 | inhibitor, single point
C[N+]1([O-])[C@@H]2CC(OC(=O)[C@@H](CO)c3ccccc3)C[C@@H]1[C@H]1O[C@H]12 (stereo partly specified) | CP215 | 8.087 | inhibitor, single point
C[N+]1([O-])[C@@H]2CC(OC(=O)[C@@H](CO)c3ccccc3)C[C@@H]1[C@H]1O[C@H]12 (stereo partly specified) | CP315 | 8.087 | inhibitor, single point
C[N+]1([O-])[C@@H]2CC(OC(=O)[C@@H](CO)c3ccccc3)C[C@@H]1[C@H]1O[C@H]12 (stereo partly specified) | PC26 | 4.053 | inhibitor, partial curve, poor fit
C[N+]1([O-])[C@@H]2CC(OC(=O)[C@@H](CO)c3ccccc3)C[C@@H]1[C@H]1O[C@H]12 (stereo partly specified) | CP215 | 0.0012 | activator, full curve, poor fit

Once more, the final 4:

{"compound": "C[N+]1([O-])[C@@H]2CC(OC(=O)[C@@H](CO)c3ccccc3)C[C@@H]1[C@H]1O[C@H]12", "stereo": "stereo partly specified", "setting": "CP215", "potency (µM)": "8.087", "remark": "inhibitor, single point"}
{"compound": "C[N+]1([O-])[C@@H]2CC(OC(=O)[C@@H](CO)c3ccccc3)C[C@@H]1[C@H]1O[C@H]12", "stereo": "stereo partly specified", "setting": "CP315", "potency (µM)": "8.087", "remark": "inhibitor, single point"}
{"compound": "C[N+]1([O-])[C@@H]2CC(OC(=O)[C@@H](CO)c3ccccc3)C[C@@H]1[C@H]1O[C@H]12", "stereo": "stereo partly specified", "setting": "PC26", "potency (µM)": "4.053", "remark": "inhibitor, partial curve, poor fit"}
{"compound": "C[N+]1([O-])[C@@H]2CC(OC(=O)[C@@H](CO)c3ccccc3)C[C@@H]1[C@H]1O[C@H]12", "stereo": "stereo partly specified", "setting": "CP215", "potency (µM)": "0.0012", "remark": "activator, full curve, poor fit"}

The results are deposited in PubChem (AID504749; NCATS, 2011).